Values of other authors as cited in PMC12436592 (Nature Communications, 2025).

Test system: P2X7R
Conditions: cited from earlier work

O=C(NCC1(N2CCN(c3ccccc3)CC2)CCOCC1)c1cccnc1Sc1ccccc1 [JNJ47965567]
fold higher affinity for the rP2X7R than the hP2X7R: ~ 10 fold

O=C1CSC(=O)N1C(CCc1ccncc1)COc1ccc(-c2cccc([N+](=O)[O-])c2)cc1 (stereo not drawn) [AZ11645373]
fold less effective against the rP2X7R than the hP2X7R: > 500 fold
fold less potent at the mP2X7R than the hP2X7R: ~ 100 fold
